PubChem BioAssay AID1259289 | Sanger Institute, 2017

- Assay: 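Find kinases whose loss adds to targeted drugs in killing bowel cancer cells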 (primary screen)
- Cells: human LS513 colorectal cancer cells
- Reagent: siRNA pool against human genes
- Challenge: anchor drug BYL719 at 1 µM, cetuximab at 5 µg/ml or trametinib at 10 nM, or DMSO vehicle alone; exposure time not given
- Detection: 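Survival versus non-targeting pool for each arm averaged over replicates, robust z-score in the arm with DMSO only, and synergy scores for BYL719, cetuximab or trametinib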
- Reading the numbers: robust z-score, siRNA alone (DMSO): higher = more viable cells; strongly negative means essential; viability with DMSO vs control: higher = more viable cells
- Call rule: 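Called essential when silencing alone under DMSO gives a robust z-score below -3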
- Calls: active = essential (knock-down alone); inactive = not essential
The whole screen tested 794 reagents; below is an unselected part. 16 of all reagents (2%) count as active. 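Active marks cell loss from silencing alone; drug synergy shows only in the synergy scores, not the calls.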 No viability above 1 is reported: the scale is capped. Further read-outs or replicates are left out here. Not stated in the record: the amount of reagent, the time to read-out.

gene	robust z-score, siRNA alone (DMSO)	viability with DMSO vs control (fraction of control)	Outcome
PAK5	-1.25	0.743	inactive
TESK1	0.561	1	inactive
MAK	0.561	1	inactive
GRK3	0.561	1	inactive
AK5	0.561	1	inactive
CAD	0.561	1	inactive
CILK1	0.561	1	inactive
EPHA5	0.561	1	inactive
CKMT2	0.561	1	inactive
CKS2	0.561	1	inactive
STK26	0.561	1	inactive
WHR1	0.561	1	inactive
LATS2	0.561	1	inactive
RPS6KL1	0.561	1	inactive
STK17B	-0.36	0.869	inactive
MAP3K8	-2.39	0.581	inactive
EGFR	-0.959	0.784	inactive
DDR2	0.561	1	inactive
MAP3K11	0.468	0.987	inactive
OXSR1	0.561	1	inactive
PRKAB2	-2.96	0.501	inactive
LMTK2	-0.154	0.899	inactive
KALRN	0.561	1	inactive
CIT	-1.86	0.656	inactive
SLK	0.561	1	inactive
MAPK6	0.209	0.95	inactive
EPHA3	-1.94	0.644	inactive
CLK1	0.561	1	inactive
WNK2	-0.000985	0.92	inactive
NME2	0.561	1	inactive
SRPK1	0.561	1	inactive
ERN1	-1.87	0.655	inactive
GNE	0.561	1	inactive
NME7	0.561	1	inactive
